Consider one sequence from patent US20200206344.

Sequences of proteins named here, by UniProt entry; tags and fusion partners are left off. A change or cut given only in a name is not applied to a line headed by its entry.
UniProt Q12824: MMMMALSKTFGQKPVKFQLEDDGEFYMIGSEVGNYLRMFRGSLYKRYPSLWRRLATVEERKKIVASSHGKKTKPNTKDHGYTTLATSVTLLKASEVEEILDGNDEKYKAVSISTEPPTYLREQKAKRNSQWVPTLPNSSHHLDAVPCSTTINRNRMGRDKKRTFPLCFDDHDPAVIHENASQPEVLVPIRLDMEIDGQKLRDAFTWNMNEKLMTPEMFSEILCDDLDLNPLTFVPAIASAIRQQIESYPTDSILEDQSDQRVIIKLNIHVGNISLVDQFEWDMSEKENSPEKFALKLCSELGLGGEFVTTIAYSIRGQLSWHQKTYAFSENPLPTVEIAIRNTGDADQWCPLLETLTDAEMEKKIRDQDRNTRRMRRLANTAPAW

Data set [1] addresses T1, FLI1 wild-type (Homo sapiens) (UniProt Q01543).
T1 sequence (looked up, limits assumed): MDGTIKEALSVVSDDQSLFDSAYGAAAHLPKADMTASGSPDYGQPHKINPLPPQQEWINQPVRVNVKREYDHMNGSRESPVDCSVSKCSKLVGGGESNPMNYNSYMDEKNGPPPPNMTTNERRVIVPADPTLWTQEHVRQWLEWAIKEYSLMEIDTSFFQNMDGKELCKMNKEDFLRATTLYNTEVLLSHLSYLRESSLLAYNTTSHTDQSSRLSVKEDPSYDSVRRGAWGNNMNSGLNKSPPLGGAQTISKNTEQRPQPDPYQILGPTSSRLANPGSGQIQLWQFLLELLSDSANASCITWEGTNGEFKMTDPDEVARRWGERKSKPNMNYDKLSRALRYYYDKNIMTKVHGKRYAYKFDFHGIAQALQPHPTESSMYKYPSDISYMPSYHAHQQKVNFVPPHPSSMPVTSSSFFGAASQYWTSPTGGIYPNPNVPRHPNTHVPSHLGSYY
Nature of the data set: EMSA. As to conditions: CITED Gangwal 2008; in vitro binding to GGAA repeats; protein in cells; protein details: lentiviral expression in MSC. Background: In EMSA bound probe runs differently from free probe, usually more slowly.

The test system of data set [2] is T2, EWS-FLI1 fusion type 1 (Homo sapiens).
T2 sequence: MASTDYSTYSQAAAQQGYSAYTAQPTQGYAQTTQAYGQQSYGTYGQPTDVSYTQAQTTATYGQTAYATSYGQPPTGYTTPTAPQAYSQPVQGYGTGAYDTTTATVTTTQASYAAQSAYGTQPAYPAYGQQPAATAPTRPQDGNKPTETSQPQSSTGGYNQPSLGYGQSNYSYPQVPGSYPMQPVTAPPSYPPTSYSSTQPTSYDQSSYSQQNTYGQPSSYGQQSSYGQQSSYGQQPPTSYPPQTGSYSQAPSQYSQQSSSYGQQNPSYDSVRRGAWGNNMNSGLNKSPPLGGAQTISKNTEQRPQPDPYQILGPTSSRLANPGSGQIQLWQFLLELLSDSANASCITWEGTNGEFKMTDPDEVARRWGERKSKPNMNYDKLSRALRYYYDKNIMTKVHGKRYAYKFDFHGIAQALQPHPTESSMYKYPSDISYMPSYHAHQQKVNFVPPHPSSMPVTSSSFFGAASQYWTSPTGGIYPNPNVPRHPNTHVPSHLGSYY
Description: EMSA. As to conditions: CITED Gangwal 2008; in vitro binding to GGAA repeats; protein in cells; protein details: V5-tagged in MSC constructs, endogenous in SK-N-MC.

Data set [3] has as its target T1, FLI1 wild-type (Homo sapiens). Description: binding assay. As to conditions: ChIP-seq in MSC; no significant binding at GGAA repeats; protein in cells; protein details: lentiviral expression in MSC.
The target of data set [4] is BAF47-FLI1 fusion (Homo sapiens) (UniProt Q12824). Nature of the data set: binding assay. As to conditions: ChIP in MSC; no significant binding at GGAA repeats; protein in cells.
The target in data set [5] is T3, SYGQ2-FLI1 (Homo sapiens) (UniProt Q01543).
T3 sequence: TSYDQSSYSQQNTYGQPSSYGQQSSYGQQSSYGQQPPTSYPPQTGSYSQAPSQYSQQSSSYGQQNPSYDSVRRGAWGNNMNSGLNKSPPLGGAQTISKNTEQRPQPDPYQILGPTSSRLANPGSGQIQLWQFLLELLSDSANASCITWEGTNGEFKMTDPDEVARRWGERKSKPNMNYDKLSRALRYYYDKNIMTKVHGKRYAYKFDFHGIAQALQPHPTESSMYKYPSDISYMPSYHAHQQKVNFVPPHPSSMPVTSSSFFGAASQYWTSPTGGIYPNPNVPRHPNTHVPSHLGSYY
Nature of the data set: binding assay. As to conditions: ChIP-seq in MSC; protein in cells.

Data set [6] deals with T4, EWS(YS37)-FLI1 (Homo sapiens).
T4 sequence: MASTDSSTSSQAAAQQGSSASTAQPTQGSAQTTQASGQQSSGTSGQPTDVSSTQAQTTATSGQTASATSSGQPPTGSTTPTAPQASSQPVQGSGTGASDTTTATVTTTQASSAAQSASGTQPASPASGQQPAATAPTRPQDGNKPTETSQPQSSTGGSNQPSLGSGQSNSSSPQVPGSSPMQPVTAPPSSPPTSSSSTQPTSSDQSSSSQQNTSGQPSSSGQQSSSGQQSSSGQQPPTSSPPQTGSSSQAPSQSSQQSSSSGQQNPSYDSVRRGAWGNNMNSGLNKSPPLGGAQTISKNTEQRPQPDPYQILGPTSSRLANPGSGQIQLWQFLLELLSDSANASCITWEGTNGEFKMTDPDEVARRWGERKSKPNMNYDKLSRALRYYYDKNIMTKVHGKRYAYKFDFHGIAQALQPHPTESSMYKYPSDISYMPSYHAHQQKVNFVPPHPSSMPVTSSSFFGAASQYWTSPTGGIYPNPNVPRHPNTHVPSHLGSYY
Nature of the data set: binding assay. As to conditions: ChIP-seq in MSC; dramatic reduction versus EWS-FLI1; p553 states not able to bind GGAA repeats; protein in cells; protein details: V5.

In data set [7] the test system is T2, EWS-FLI1 fusion type 1 (Homo sapiens). Description: binding assay. As to conditions: ChIP-seq/ChIP-qPCR in SK-N-MC and MSC; GGAA repeat top-ranked motif; protein in cells; protein details: V5-tagged in MSC constructs, endogenous in SK-N-MC. In general terms: Real-time PCR tracks product formation cycle by cycle.

At least one result comes from cells or an extract, where the contact may be indirect. For some of these results: No signal at the amounts used counts as a negative. For some of these results: Protein sequences can lack the tags named with them. For some of these results: The exact form of at least one protein or probe is not confirmed. For some of these results: Weaker means in comparison with the reference protein, sequence or condition of that experiment.

Consider “AAGGAAGGAAGGAAGG (double strand) [GGAA microsatellite repeat enhancers]”, for which the binding result in data set [1] is “binds”; in data set [2], “binds”; in data set [3], “no binding”; in data set [4], “no binding”; in data set [5] it was “binds”; in data set [6] it was “binds more weakly”. Moreover, the binding result in data set [7] is on record as “binds”.
